The text below walks through data of patent US20090181931A1, “ANTIVIRAL ACTIVITY OF CIDOFOVIR AGAINST ONCOLYTIC VIRUSES” (priority 2008, published 2009).

The subject of this data set is H1299 cells. The data set is described as follows: XTT cell viability assay, CDV alone, H1299 cells. In kind it is cell-based. The conditions noted are these: CDV 0.32 μM, H1299, no virus, 7 days, Table 4B. The procedure:
Cells frozen in liquid nitrogen were thawed in water bath at 37° C., seeded at T25 flask, and cultured at 70-90% sub-confluent monolayer. Cells were detached with trypsin, and prepared suspension at a concentration of 1.0×10^4 cells/ml.
Cells were seeded in 96 well-plate (100 μL/well, 1000 cells/well), then cultured with 5% CO2 at 37° C.
Viruses were diluted at MOI of 1 (OBP-301, OBP-202) in H1299 and 5 in A549 (PFU/cell). Medium in each well was removed, 150 μL of diluted virus solution was added to each well of the plate. 2 hours later, medium was aspirated and replaced with fresh medium containing 2% FCS and serially diluted CDV. Cells were incubated with 5% CO2 at 37° C. for 7 days after infection.
Viruses were diluted at MOI of 0.1 (OBP-401) or 10 (ONYX-015) in H1299. Medium in each well was removed, 50 μL of diluted virus solution was added to each well of the plate. 2 hours later, medium was aspirated and replaced with fresh medium containing 2% FCS and serially diluted CDV. Cells were incubated with 5% CO2 at 37° C. for 7 days after infection. […]
Medium in each well of plate was removed, and 150 μL of mixture prepared above was added to each well. Plate was incubated with 5% CO2 at 37° C. for 4 hours, and then calculated absorbance at 450 nm and 690 nm. Protection was determined by the formula below: […]
For orientation: Tetrazolium dyes change colour on reduction, which living cells bring about.

Several values for one entry are separate records, joined by “and”; a condition that tells them apart may be missing. Equal entries are not always repeated. This continues a long series; more values of the same kind are listed elsewhere.

With `Nc1ccn(C[C@@H](CO)OCP(=O)(O)O)c(=O)n1.O.O` [CDV, 1-[(S)-3-hydroxy-2-(phosphonomethoxy)propyl]cytosine dihydrate], the “Relative cell viability Ave.” value was found to be 1.007. Moreover, the Relative cell viability (single wells, dihydrate) is 1.003 and 1.008 and 1.020 and 0.998.
